In article PMC4764573 one finds binding data, which are given here for eleven substances.

The chains behind the UniProt entries cited, without tags or fusion partners.
UniProt O75832: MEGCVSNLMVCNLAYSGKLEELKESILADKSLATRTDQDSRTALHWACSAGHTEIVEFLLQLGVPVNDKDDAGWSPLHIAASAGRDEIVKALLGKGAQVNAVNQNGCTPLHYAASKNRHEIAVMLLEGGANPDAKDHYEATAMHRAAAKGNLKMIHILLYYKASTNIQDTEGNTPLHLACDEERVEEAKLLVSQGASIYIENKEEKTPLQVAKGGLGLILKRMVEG
UniProt Q9NT62: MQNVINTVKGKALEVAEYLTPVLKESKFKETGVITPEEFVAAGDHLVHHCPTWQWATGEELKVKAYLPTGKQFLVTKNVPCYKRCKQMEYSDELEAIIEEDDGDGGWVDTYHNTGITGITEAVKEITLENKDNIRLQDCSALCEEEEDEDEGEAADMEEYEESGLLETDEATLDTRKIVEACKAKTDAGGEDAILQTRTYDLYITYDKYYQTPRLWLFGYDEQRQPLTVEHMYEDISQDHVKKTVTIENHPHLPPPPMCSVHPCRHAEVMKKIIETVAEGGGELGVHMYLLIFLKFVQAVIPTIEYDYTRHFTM
UniProt Q92688: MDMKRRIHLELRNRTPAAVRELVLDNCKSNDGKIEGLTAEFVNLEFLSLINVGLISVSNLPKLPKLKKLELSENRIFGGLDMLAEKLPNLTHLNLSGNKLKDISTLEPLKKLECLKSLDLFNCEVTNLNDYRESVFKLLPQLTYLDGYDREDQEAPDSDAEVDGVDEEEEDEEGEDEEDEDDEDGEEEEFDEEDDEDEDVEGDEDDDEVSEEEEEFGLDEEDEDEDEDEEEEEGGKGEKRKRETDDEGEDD
UniProt P46108: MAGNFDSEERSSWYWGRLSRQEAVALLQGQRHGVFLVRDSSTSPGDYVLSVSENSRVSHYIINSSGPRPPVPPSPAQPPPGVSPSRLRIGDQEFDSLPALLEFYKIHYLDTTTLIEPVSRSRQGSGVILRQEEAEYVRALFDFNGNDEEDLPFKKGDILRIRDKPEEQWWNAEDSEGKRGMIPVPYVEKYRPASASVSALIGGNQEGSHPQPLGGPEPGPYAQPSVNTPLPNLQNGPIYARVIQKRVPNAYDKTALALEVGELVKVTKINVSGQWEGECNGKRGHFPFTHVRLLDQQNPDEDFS
UniProt P38936: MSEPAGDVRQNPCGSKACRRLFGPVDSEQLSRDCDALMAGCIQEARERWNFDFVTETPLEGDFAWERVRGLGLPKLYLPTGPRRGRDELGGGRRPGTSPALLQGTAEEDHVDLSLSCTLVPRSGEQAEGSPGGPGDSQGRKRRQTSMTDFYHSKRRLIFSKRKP
UniProt P61011: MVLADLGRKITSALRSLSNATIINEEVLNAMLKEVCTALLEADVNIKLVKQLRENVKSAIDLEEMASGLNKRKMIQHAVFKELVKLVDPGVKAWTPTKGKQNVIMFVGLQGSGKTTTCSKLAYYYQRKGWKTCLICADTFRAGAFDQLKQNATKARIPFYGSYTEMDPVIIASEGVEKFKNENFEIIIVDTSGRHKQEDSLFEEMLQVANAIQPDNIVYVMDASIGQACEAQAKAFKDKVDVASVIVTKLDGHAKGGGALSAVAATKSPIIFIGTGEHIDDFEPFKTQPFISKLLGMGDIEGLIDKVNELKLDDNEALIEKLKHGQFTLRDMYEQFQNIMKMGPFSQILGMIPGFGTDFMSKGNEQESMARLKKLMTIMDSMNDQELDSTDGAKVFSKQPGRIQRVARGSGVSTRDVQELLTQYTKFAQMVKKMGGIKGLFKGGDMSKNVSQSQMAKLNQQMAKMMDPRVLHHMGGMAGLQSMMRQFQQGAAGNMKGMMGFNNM
UniProt P50579: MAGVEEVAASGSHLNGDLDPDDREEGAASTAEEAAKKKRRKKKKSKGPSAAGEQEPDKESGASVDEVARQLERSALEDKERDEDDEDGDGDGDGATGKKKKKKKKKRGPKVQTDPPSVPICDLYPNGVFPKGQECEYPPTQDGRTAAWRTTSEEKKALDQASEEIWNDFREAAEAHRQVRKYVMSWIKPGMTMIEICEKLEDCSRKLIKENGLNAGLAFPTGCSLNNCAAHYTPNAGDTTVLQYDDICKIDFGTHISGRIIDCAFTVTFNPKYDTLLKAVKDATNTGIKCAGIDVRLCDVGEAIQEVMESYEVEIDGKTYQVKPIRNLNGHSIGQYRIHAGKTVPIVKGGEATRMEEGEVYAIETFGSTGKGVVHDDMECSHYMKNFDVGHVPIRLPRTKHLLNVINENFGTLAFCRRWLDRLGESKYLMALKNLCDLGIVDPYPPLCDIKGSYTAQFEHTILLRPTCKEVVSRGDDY
UniProt P51617: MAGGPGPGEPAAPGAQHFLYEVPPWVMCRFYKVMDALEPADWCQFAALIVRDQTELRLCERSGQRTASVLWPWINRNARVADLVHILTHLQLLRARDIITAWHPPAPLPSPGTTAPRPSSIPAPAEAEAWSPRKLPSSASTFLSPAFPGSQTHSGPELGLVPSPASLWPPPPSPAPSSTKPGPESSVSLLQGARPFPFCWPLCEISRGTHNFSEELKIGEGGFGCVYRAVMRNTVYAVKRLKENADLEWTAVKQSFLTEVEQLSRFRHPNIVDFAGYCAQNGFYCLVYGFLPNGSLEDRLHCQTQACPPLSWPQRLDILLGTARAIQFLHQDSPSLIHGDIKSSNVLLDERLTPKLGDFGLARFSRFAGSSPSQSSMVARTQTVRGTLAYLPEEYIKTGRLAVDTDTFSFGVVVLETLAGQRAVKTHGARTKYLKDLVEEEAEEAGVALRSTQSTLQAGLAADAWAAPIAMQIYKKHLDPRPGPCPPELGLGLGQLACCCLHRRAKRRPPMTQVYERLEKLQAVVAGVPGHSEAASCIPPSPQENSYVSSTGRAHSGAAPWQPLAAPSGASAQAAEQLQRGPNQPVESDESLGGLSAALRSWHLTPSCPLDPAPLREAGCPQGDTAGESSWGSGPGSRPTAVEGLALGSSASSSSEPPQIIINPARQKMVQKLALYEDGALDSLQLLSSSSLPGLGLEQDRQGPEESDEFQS
UniProt Q9UHD2: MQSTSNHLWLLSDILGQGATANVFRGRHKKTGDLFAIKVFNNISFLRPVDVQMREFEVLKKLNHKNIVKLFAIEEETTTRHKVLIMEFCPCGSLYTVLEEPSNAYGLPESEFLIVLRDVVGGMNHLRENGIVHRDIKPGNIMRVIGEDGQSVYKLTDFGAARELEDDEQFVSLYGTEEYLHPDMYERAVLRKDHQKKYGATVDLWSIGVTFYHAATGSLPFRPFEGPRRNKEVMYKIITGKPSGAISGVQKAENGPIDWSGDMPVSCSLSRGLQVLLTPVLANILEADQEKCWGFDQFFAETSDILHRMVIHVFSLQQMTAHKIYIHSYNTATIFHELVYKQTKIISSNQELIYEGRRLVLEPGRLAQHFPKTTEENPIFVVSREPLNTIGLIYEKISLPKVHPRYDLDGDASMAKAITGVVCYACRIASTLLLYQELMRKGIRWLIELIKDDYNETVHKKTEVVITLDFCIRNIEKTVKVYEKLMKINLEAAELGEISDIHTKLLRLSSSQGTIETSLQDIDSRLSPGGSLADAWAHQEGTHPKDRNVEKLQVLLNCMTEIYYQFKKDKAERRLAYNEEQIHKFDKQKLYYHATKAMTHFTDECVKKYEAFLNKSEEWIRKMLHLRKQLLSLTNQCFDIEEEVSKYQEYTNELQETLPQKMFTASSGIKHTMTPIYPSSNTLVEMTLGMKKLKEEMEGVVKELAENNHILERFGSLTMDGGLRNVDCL

No constants are given. Whether binding was seen depends on the method and setting. In cells and extracts the contact can be indirect. Here binding means that the protein was enriched with, or labelled near, the bait; the list need not be complete. For some assays here: No binding means not detected with the bait.

The target of one test is mmCRM1 (mouse CRM1), biotinylated version carrying an Avi-tag (mouse) (UniProt Q6P5F9). Put plainly: affinity purification with mass spectrometry; as a1, with cytosolic HeLa S100 extract on immobilised CRM1 (taken as mmCRM1), with 5 μM RanGTP (hsRanQ69L^5-180); only the target purified.
As for “26S proteasome non-ATPase regulatory subunit 10 (HeLa extract) (from UniProt O75832 1-226)”, the binding result is reported as “no binding”. The same measure, in the same setting: then “ATG8-conjugating enzyme ATG3 (HeLa extract) (from UniProt Q9NT62 1-314)”, with “binds”; and “Acidic leucine-rich nuclear phosphoprotein 32 family member B (HeLa extract) (from UniProt Q92688 1-251)”, with “no binding”. Turning to “Adapter molecule CRK (HeLa extract) (from UniProt P46108 1-304)”, the binding result is listed as “no binding”. “Cyclin-dependent kinase inhibitor 1 (HeLa extract) (from UniProt P38936 1-164)”: the binding entry is on record as “no binding”. On the same count and under the same terms, then “Raf-1 (HeLa extract) (from UniProt P04049 1-648) (enzyme)”, with “binds”. Still for that read-out and setting: under “SRP54 (HeLa extract) (from UniProt P61011 1-504)” stands “binds”; under “co-translational methionine aminopeptidase MetAP2 (HeLa extract) (from UniProt P50579 1-478) (enzyme)”, “binds”; under “interleukin-1 receptor-associated kinase 1 (HeLa extract) (from UniProt P51617 1-712) (enzyme)”, “binds”. The same measure, in the same setting: under “tank-binding kinase 1 (HeLa extract) (from UniProt Q9UHD2 1-729) (enzyme)” stands “binds”.

Another test has the same target. Put plainly: affinity purification with mass spectrometry; 500 pmoles biotinylated Avi-tagged CRM1 (taken as mmCRM1) on 20 μl streptavidin agarose; 1 ml Xenopus laevis oocyte extract (diluted 1:5, depleted of nuclear transport receptors on Phenyl-Sepharose, RNAse A treated) with 5 μM RanGTP (hsRanQ69L^5-180); 3 hr at 4°C; 20 mM HEPES/ NaOH pH 7.5, 90 mM KAc, 2 mM MgOAc, 250 mM Sucrose, 5 mM DTT; minus CRM1 and minus RanGTP controls; only the target purified.
In the case of “Arp2/3-1b of the Xenopus oocyte extract (from UniProt Q6GNU1 1-369)”, the binding result is reported as “binds weakly”.
